Laboratory results: paper PMC8517208

Target: T1, murine EpCAM in fusion with yellow fluorescent protein (YFP) at the C-terminus, in mF9 cells (murine) (UniProt Q99JW5)
T1 sequence: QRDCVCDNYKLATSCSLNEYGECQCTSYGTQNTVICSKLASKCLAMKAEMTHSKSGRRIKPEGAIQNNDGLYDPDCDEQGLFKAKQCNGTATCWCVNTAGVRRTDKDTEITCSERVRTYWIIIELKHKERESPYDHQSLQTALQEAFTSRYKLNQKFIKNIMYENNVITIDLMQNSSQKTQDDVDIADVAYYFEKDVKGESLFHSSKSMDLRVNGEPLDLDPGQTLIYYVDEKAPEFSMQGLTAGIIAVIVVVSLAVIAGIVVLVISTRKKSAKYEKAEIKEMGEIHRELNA
Assay: co-IP; whole-cell lysates of mF9 cells stably expressing EpCAM-YFP or YFP; 4 mg lysate, GFP-Trap agarose beads; washed with 0.5% tween in TBS; immunoblot of endogenous partners

binding: binds
Substance: Rab5 (mouse (endogenous in mF9))

These are yes or no findings as the source states them, for the method shown. In cells and extracts the contact can be indirect. Binding calls can cover weak binding; strength is not graded here. Where a sequence is shown, tags or fusion partners need not be part of it.
